These are yes or no findings as the source states them, for the method shown. Binding seen in cells or lysates may run through a third protein. Some binding calls cover weakened binding; strength is not graded here. For some assays here: Sequences can lack the tags named with a protein. One block for each binder: values may come before it.
What was measured:
HA-AURKB (human) = HA-AURKB (human) (UniProt Q96GD4); assay: co-IP; PC-3U cells transiently transfected with HA-AURKB and GFP-APPL1 domains, synchronized; immunoprecipitation with an HA antibody, immunoblotting with a GFP antibody
[1] = molecular target: Aurora kinase B (human (endogenous in PC-3U and in patient tissue)) (UniProt Q96GD4); assay: proximity ligation; in situ PLA, brightfield, on prostate cancer tissue microarrays with antibodies against AURKB and TβRI
[2] = molecular target: Aurora kinase B (human (endogenous in PC-3U and in patient tissue)) (UniProt Q96GD4); assay: co-IP; lysates of synchronized PC-3U cells, endogenous proteins; immunoprecipitation with an AURKB antibody, immunoblotting for TβRI, APPL1 and TRAF6

Chains of the proteins cited; added tags and fusions are not shown.
UniProt Q96GD4: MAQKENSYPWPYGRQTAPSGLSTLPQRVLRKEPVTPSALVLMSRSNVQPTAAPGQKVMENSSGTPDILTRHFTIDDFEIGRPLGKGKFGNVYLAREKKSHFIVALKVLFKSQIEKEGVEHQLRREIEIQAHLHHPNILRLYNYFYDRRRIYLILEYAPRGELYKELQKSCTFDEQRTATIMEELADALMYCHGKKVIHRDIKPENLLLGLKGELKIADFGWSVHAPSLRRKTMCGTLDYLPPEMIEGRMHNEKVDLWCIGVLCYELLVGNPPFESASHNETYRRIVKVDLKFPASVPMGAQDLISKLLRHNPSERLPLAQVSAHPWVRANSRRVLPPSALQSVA

binding (HA-AURKB (human)): binds
B1: GFP-APPL1 PH domain (domain or fragment, UniProt Q9UKG1 277-375)
chain: LTRKAGYLNARNKTGLVSSTWDRQFYFTQGGNLMSQARGDVAGGLAMDIDNCSVMAVDCEDRRYCFQITSFDGKKSSILQAESKKDHEEWICTINNISK

binding [1]: binds
binding [2]: binds
B2: TGFβ type I receptor (receptor, UniProt P36897 34-503)
chain: LQCFCHLCTKDNFTCVTDGLCFVSVTETTDKVIHNSMCIAEIDLIPRDRPFVCAPSSKTGSVTTTYCCNQDHCNKIELPTTVKSSPGLGPVELAAVIAGPVCFVCISLMLMVYICHNRTVIHHRVPNEEDPSLDRPFISEGTTLKDLIYDMTTSGSGSGLPLLVQRTIARTIVLQESIGKGRFGEVWRGKWRGEEVAVKIFSSREERSWFREAEIYQTVMLRHENILGFIAADNKDNGTWTQLWLVSDYHEHGSLFDYLNRYTVTVEGMIKLALSTASGLAHLHMEIVGTQGKPAIAHRDLKSKNILVKKNGTCCIADLGLAVRHDSATDTIDIAPNHRVGTKRYMAPEVLDDSINMKHFESFKRADIYAMGLVFWEIARRCSIGGIHEDYQLPYYDLVPSDPSVEEMRKVVCEQKLRPNIPNRWQSCEALRVMAKIMRECWYANGAARLTALRIKKTLSQLSQQEGIKM

Continued, binder first:

B3: Adaptor Protein, Phosphotyrosine Interacting with PH Domain and Leucine Zipper 1 (protein, UniProt Q9UKG1 1-709)
chain: MPGIDKLPIEETLEDSPQTRSLLGVFEEDATAISNYMNQLYQAMHRIYDAQNELSAATHLTSKLLKEYEKQRFPLGGDDEVMSSTLQQFSKVIDELSSCHAVLSTQLADAMMFPITQFKERDLKEILTLKEVFQIASNDHDAAINRYSRLSKKRENDKVKYEVTEDVYTSRKKQHQTMMHYFCALNTLQYKKKIALLEPLLGYMQAQISFFKMGSENLNEQLEEFLANIGTSVQNVRREMDSDIETMQQTIEDLEVASDPLYVPDPDPTKFPVNRNLTRKAGYLNARNKTGLVSSTWDRQFYFTQGGNLMSQARGDVAGGLAMDIDNCSVMAVDCEDRRYCFQITSFDGKKSSILQAESKKDHEEWICTINNISKQIYLSENPEETAARVNQSALEAVTPSPSFQQRHESLRPAAGQSRPPTARTSSSGSLGSESTNLAALSLDSLVAPDTPIQFDIISPVCEDQPGQAKAFGQGGRRTNPFGESGGSTKSETEDSILHQLFIVRFLGSMEVKSDDHPDVVYETMRQILAARAIHNIFRMTESHLLVTCDCLKLIDPQTQVTRLTFPLPCVVLYATHQENKRLFGFVLRTSSGRSESNLSSVCYIFESNNEGEKICDSVGLAKQIALHAELDRRASEKQKEIERVKEKQQKELNKQKQIEKDLEEQSRLIAASSRPNQASSEGQFVVLSSSQSEESDLGEGGKKRESEA
binding [2]: binds

B4: GFP-APPL1 BAR domain (domain or fragment, UniProt Q9UKG1 3-268)
chain: GIDKLPIEETLEDSPQTRSLLGVFEEDATAISNYMNQLYQAMHRIYDAQNELSAATHLTSKLLKEYEKQRFPLGGDDEVMSSTLQQFSKVIDELSSCHAVLSTQLADAMMFPITQFKERDLKEILTLKEVFQIASNDHDAAINRYSRLSKKRENDKVKYEVTEDVYTSRKKQHQTMMHYFCALNTLQYKKKIALLEPLLGYMQAQISFFKMGSENLNEQLEEFLANIGTSVQNVRREMDSDIETMQQTIEDLEVASDPLYVPDPDP
binding (HA-AURKB (human)): binds

Source: PMC9386726
